Here are results for seven molecules from publication PMC8849533.

By UniProt entry, the sequences of proteins in these tests, tags left out.
UniProt Q9UHP3: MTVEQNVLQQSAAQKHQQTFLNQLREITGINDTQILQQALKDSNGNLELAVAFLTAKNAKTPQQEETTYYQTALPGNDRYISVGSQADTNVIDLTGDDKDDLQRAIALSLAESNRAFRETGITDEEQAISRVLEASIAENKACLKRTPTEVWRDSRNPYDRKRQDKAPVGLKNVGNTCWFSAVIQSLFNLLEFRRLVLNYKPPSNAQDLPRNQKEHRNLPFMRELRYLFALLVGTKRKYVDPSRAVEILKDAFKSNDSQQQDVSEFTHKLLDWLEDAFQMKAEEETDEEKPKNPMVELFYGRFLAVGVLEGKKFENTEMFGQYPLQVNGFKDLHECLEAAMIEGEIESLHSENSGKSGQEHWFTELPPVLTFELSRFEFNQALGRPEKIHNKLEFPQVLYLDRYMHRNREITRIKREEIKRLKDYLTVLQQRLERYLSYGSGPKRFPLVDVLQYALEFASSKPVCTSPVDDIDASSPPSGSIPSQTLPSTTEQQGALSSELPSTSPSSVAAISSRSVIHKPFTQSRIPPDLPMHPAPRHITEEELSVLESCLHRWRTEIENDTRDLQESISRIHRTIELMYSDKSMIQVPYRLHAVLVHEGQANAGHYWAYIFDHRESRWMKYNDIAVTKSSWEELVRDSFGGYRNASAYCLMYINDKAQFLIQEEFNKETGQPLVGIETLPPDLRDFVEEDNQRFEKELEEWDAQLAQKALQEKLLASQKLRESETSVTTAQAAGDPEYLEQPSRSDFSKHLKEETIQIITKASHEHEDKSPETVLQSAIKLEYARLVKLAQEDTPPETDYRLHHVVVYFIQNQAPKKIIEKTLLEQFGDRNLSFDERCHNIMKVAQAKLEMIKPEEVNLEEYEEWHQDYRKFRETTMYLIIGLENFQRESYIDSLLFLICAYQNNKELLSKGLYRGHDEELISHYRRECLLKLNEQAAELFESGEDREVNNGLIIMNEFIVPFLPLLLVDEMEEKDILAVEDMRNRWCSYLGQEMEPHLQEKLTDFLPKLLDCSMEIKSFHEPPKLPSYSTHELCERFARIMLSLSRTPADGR
UniProt Q7Z434: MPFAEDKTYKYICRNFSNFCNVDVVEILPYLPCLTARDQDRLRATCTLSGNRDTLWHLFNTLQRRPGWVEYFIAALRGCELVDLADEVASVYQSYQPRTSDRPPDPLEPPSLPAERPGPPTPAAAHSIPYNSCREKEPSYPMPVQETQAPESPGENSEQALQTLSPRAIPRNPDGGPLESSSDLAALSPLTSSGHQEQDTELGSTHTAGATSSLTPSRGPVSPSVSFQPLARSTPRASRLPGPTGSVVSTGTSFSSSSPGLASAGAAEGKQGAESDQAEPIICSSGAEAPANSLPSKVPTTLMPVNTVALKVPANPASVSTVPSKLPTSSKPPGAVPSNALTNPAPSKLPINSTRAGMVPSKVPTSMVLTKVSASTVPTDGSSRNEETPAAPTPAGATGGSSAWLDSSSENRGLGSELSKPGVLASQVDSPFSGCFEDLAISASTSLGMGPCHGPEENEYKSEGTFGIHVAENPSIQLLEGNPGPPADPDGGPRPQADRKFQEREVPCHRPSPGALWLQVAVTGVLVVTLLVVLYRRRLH

No constants are given. Whether binding was seen depends on the method and setting. For part of these data: Binding seen in cells or lysates may run through a third protein. Some binding calls cover weakened binding; strength is not graded here. For part of these data: Where a sequence is shown, tags or fusion partners need not be part of it.

Assay [1] deals with T1, contactin-1 (CNTN1), overexpressed (human) (UniProt Q12860).
T1 sequence: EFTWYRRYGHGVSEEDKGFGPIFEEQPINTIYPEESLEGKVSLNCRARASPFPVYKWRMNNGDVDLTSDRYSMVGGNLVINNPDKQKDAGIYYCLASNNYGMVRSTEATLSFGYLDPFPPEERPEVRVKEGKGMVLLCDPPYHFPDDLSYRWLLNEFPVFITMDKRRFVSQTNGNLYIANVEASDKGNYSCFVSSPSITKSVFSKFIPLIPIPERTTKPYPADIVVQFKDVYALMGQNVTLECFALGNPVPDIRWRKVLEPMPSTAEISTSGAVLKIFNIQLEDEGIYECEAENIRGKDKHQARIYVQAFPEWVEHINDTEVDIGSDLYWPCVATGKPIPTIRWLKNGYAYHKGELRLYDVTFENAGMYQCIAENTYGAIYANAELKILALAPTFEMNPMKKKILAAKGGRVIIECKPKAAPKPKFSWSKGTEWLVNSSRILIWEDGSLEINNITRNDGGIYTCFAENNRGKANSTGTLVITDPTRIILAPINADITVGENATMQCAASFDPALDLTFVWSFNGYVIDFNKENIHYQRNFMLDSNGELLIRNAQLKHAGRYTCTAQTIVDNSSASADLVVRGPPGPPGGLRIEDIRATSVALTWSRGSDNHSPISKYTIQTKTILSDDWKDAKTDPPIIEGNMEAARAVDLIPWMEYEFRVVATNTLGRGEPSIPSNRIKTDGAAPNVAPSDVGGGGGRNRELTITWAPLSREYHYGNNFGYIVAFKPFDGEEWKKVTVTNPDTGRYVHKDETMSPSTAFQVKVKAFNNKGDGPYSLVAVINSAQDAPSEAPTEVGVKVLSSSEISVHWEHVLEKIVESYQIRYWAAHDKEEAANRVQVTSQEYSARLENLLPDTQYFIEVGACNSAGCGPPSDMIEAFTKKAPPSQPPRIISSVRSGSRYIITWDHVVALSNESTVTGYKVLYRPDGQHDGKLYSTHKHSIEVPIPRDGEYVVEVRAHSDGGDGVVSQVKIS
Put plainly: co-IP; HEK293 cells transfected with the indicated plasmids for 24 h; NP-40 lysis buffer (20 mM Tris-HCl pH 7.5, 150 mM NaCl, 1% NP-40, 1 mM EDTA); 4 h at 4°C; beads washed with lysis buffer containing 500 mM NaCl; also in CNTN1+/+ or CNTN1-/- cells (Fig 6I) and MAVS+/+ cells (Fig 6J).

For a further assay, the target named is Flag-USP25 (UniProt Q9UHP3). The assay is described as above.
Another assay deals with T2, GST-CNTN1 (human) (UniProt Q12860).
T2 sequence: T1 sequence
Kind of assay: pull-down; 1 μg purified GST fusion protein captured on Glutathione-Sepharose 4B beads, His-tagged fusion protein added overnight at 4°C; washed three times with ice-cold PBS; immunoblotting; both purified. (Immunoblotting shows a protein as a band on a membrane.)

Assay [2] deals with endogenous USP25 (human (endogenous in HEK293)) (UniProt Q9UHP3). Put plainly: co-IP.
Assay [3] concerns the target T3, endogenous CNTN1 (human (endogenous in HEK293)) (UniProt Q12860).
T3 sequence: T1 sequence
Put plainly: co-IP.

In the next assay the target is T4, Flag-CNTN1 (human) (UniProt Q12860).
T4 sequence: T1 sequence
Put plainly: co-IP; HEK293 cells transfected with the indicated plasmids for 24 h; NP-40 lysis buffer (20 mM Tris-HCl pH 7.5, 150 mM NaCl, 1% NP-40, 1 mM EDTA); 4 h at 4°C; beads washed with lysis buffer containing 500 mM NaCl; also in CNTN1+/+ or CNTN1-/- cells (Fig 6I) and MAVS+/+ cells (Fig 6J).

As for “Flag-USP25 (from UniProt Q9UHP3 1-1055) (enzyme)”, the binding result in assay [1] was “binds”.

Consider HA-MAVS (from UniProt Q7Z434 1-540), for which the binding entry with Flag-USP25 is “binds”.

Regarding “His-USP25 (from UniProt Q9UHP3 1-1055) (enzyme)”, the binding result with GST-CNTN1 (human) was “binds”.

Turning to “MAVS, overexpressed (from UniProt Q7Z434 1-540)”, in assay [1], the binding entry is “binds”.

Take “endogenous MAVS (from UniProt Q7Z434 1-540)”: the binding entry in assay [2] and in assay [3] was “binds” each time.

For the molecule “endogenous USP25 (from UniProt Q9UHP3 1-1055) (enzyme)”, the binding entry (in assay [3]; in the assay with Flag-CNTN1 (human)) was “binds” throughout.

B1: RIG-I, overexpressed (protein, UniProt O95786 1-925)
chain: MTTEQRRSLQAFQDYIRKTLDPTYILSYMAPWFREEEVQYIQAEKNNKGPMEAATLFLKFLLELQEEGWFRGFLDALDHAGYSGLYEAIESWDFKKIEKLEEYRLLLKRLQPEFKTRIIPTDIISDLSECLINQECEEILQICSTKGMMAGAEKLVECLLRSDKENWPKTLKLALEKERNKFSELWIVEKGIKDVETEDLEDKMETSDIQIFYQEDPECQNLSENSCPPSEVSDTNLYSPFKPRNYQLELALPAMKGKNTIICAPTGCGKTFVSLLICEHHLKKFPQGQKGKVVFFANQIPVYEQQKSVFSKYFERHGYRVTGISGATAENVPVEQIVENNDIIILTPQILVNNLKKGTIPSLSIFTLMIFDECHNTSKQHPYNMIMFNYLDQKLGGSSGPLPQVIGLTASVGVGDAKNTDEALDYICKLCASLDASVIATVKHNLEELEQVVYKPQKFFRKVESRISDKFKYIIAQLMRDTESLAKRICKDLENLSQIQNREFGTQKYEQWIVTVQKACMVFQMPDKDEESRICKALFLYTSHLRKYNDALIISEHARMKDALDYLKDFFSNVRAAGFDEIEQDLTQRFEEKLQELESVSRDPSNENPKLEDLCFILQEEYHLNPETITILFVKTRALVDALKNWIEGNPKLSFLKPGILTGRGKTNQNTGMTLPAQKCILDAFKASGDHNILIATSVADEGIDIAQCNLVILYEYVGNVIKMIQTRGRGRARGSKCFLLTSNAGVIEKEQINMYKEKMMNDSILRLQTWDEAVFREKILHIQTHEKFIRDSQEKPKPVPDKENKKLLCRKCKALACYTADVRVIEECHYTVLGDAFKECFVSRPHPKPKQFSSFEKRAKIFCARQNCSHDWGIHVKYKTFEIPVIKIESFVVEDIATGVQTLYSKWKDFHFEKIPFDPAEMSK
With B1, in assay [1], the binding entry is reported as “no binding”.
